From PubChem BioAssay AID493014 (National Center for Advancing Translational Sciences (NCATS), 2011)
Some of the results follow. These are further read-outs of the screen, such as a control signal, another cell line or another target. No call is given for them. Most of these compounds were active or inconclusive in the main read-out, so they are no random draw. Words in brackets tell the shape of the fitted curve; partial curves, single points and poor fits give uncertain potencies.

Test: qHTS Assay to Find Inhibitors of Chronic Active B-Cell Receptor Signaling
Conditions: ABC-DLBCL IkBa-CBG/CBR reporter, luminescence ratio (green luciferase fused to IkBa over red control in TMD8 lymphoma cells), 4 h
Procedure, shortened: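 Compounds up to 46 uM were incubated four hours with TMD8 cells whose green CBG68 luciferase is fused to IkappaBalpha; red CBR luminescence normalised the signal, and concentration-effect curves were fitted to fusion, red and ratio data.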

[1] = measured here: CBR red luminescence, cell number
[2] = measured here: IkBa-CBG green luminescence

Row | Structure (SMILES) | AC50 [1] | AC50 [2]
1 | Cc1cc(C(=O)NNc2ccc(C)c(C)c2)no1 | 35.5 µM [falling, single point] | 
2 | Nc1nnc(SCC(=O)OCC(=O)c2ccccc2Br)s1 | 5.01 µM [falling, single point] | 
3 | Cc1ccc(S(=O)(=O)CCC(=O)c2ccc(O)cc2O)cc1 | 35.5 µM [falling, single point] | 
4 | COc1cc2c(cc1OC)C(C)N(C(C)=O)CC2 (configuration not stated) |  | 23.1 µM [falling, partial curve, poor fit]
5 | COc1ccc(C2(C)NC(=O)NC2=O)cc1OC (configuration not stated) | 5.62 µM [falling, single point] | 
6 | O=C(Nc1ccccc1)N1CC=C(c2ccc(F)cc2)CC1 | 29.1 µM [falling, single point] | 
7 | O=C(Nc1ccccc1)[C@@H]1[C@@H]2C(=O)N(c3ccc(F)cc3)C(=O)[C@@H]2[C@H]2C=CC=NN21 | 35.5 µM [falling, single point] | 
8 | CC1(C)Cc2c(sc(NC(=O)C(=O)N3CCCCC3)c2C(=O)O)CO1 | 35.5 µM [rising, partial curve, poor fit] | 
9 | O=C(OCC(=O)N1CCN(C(=O)c2ccco2)CC1)c1c(Cl)cccc1Cl | 2.06 µM [rising, full curve, poor fit] | 
10 | COc1ccc2oc(C(=O)OCC(=O)N3CC(C)CC(C)C3)c(C)c2c1 (configuration not stated) | 0.651 µM [falling, partial curve] | 
11 | COC(=O)[C@@H]1CCCN1C(=O)CCc1nnc(CCC2CCCCC2)o1 | 0.316 µM [rising, full curve] | 
12 | O=c1cc(-c2c(F)c(F)c(F)c(F)c2F)oc2c(F)c(F)c(F)c(F)c12 | 7.94 µM [falling, partial curve] | 
13 | Cc1ccc2c(c1)c1c3n2CCN(C(=O)CN2CCN(C)CC2)C3CCC1 (configuration not stated) | 15.8 µM [falling, single point] | 
14 | N#CC1CCCc2c1[nH]c1ccc([N+](=O)[O-])cc21 (configuration not stated) | 1.12 µM [rising, full curve, poor fit] | 
15 | CCC(C)NC(=S)Nc1ccc(C(=O)OC)cc1 (configuration not stated) | 14.1 µM [falling, single point] | 
16 | Cn1c(SCC(=O)Nc2ccccc2F)nnc1-c1cc2ccccc2o1 | 3.66 µM [rising, partial curve] | 
17 | COC(=O)c1cc(-c2ccc(C)cc2)n[nH]1 | 1.26 µM [rising, full curve, poor fit] | 
18 | COc1ccc(-c2nc(S(=O)(=O)c3ccccc3)c(N3CCOCC3)o2)cc1 | 0.0184 µM [rising, full curve, poor fit] | 
19 | CCCN(CCC)CC(O)Cn1cc(/C=C/C(=O)c2ccccc2)c2ccccc21 (configuration not stated) | 35.5 µM [falling, single point] | 
20 | NC(=S)COc1ccccc1 | 6.31 µM [rising, single point] | 
21 | O=C(O)c1cccc(Nc2c3ccccc3nc3ccccc23)c1 | 28.2 µM [falling, single point] | 
22 | CC(C)(C)C1CCC2(CC1)C(C#N)=C(SCC(=O)NC1CCCCC1)NC(=O)C2C#N (configuration not stated) | 35.5 µM [falling, single point] | 

Row | Structure (SMILES) | AC50 [1] | AC50 [2]
23 | CC(O)CNCCOc1ccccc1-c1ccccc1 (configuration not stated) | 35.5 µM [falling, single point] | 
24 | Cc1c(C2Nc3ccccc3NC3=C2C(=O)CC(C)(C)C3)cnn1C (configuration not stated) | 3.66 µM [falling, full curve] | 
25 | CCOc1ccc(N2C(=O)NC(Cc3c[nH]c4ccccc34)C2=O)cc1 (configuration not stated) | 2.06 µM [falling, single point] | 
26 | O=C(O)c1cc(N/N=C/c2ccc(N3CCOCC3)cc2)ccc1Cl | 17.8 µM [falling, partial curve, poor fit] | 
27 | O=C(c1ccc([N+](=O)[O-])cc1)N1CCN(Cc2ccccc2[N+](=O)[O-])CC1 | 11.2 µM [falling, partial curve] | 
28 | Clc1ccc(N/N=C/c2cccs2)nn1 | 14.1 µM [rising, partial curve, poor fit] | 
29 | COc1ccccc1C(=O)N/N=C/c1ccc2c(c1)OCO2 | 17.8 µM [falling, partial curve] | 
30 | CCN(CC)CCCC(C)NC(=O)c1c(NC(=O)c2ccccc2)sc2c1CCCC2 (configuration not stated) | 12.6 µM [falling, single point] | 
31 | COc1ccc(Oc2ccc(/C=N/NC(=O)c3cccnc3)cc2[N+](=O)[O-])cc1 | 12.6 µM [falling, single point] | 
32 | CN(C)CCCN1C(=O)c2cccc3c([N+](=O)[O-])ccc(c23)C1=O | 6.51 µM [falling, full curve] | 23.1 µM [rising, partial curve]
33 | CCc1cccc(C)c1NC(=O)N(C)C1CCCCC1 | 35.5 µM [rising, single point] | 
34 | COC(=O)c1cc2ccsc2n1CC(=O)N1CCCc2ccccc21 | 35.5 µM [falling, single point] | 
35 | Fc1cc(NC(=S)NCc2ccc(CNC(=S)Nc3ccc(Cl)c(F)c3)cc2)ccc1Cl | 35.5 µM [rising, single point] | 
36 | O=C(O)CC1=C(Nc2ccccc2)C(=O)N(c2ccccc2)C1c1ccc(Cl)cc1 (configuration not stated) | 12.6 µM [falling, partial curve] | 
37 | N/C(=N\OC(=O)c1ccc(Cl)cc1[N+](=O)[O-])c1cccnc1 | 0.794 µM [rising, full curve, poor fit] | 
38 | Cc1ccc2nc(N3C(=O)C(O)=C(C(=O)c4cc5ccccc5o4)C3c3cccs3)sc2c1 (configuration not stated) | 0.282 µM [falling, full curve] | 
39 | Cc1ccc([N+](=O)[O-])cc1S(=O)(=O)Nc1ccc(-c2ccc(N3CCOCC3)nn2)cc1 | 18.4 µM [falling, single point] | 
40 | COc1ccc(C(CNC(=O)COc2c(C)cc(C)cc2C)N2CCOCC2)cc1 (configuration not stated) | 0.651 µM [rising, full curve] | 
41 | COc1cc(-c2ccc3oc(-c4cccc(C)c4)c(C#CC4(O)CCCCC4)c3c2)cc(OC)c1OC | 29.1 µM [rising, single point] | 
42 | Cc1ccc(-n2c(SCC(=O)c3c(N)n(C)c(=O)n(C)c3=O)nc3sc4c(c3c2=O)CCCC4)c(C)c1 | 25.9 µM [rising, single point] | 
43 | CN(c1ccccc1)S(=O)(=O)c1ccc(C(=O)N2CCCC(C(F)(F)F)C2)cc1 (configuration not stated) | 22.4 µM [falling, single point] | 
44 | O=C(NC1CCCCC1)c1cccc(OCc2ccccc2)c1 | 35.5 µM [falling, single point] | 

Row | Structure (SMILES) | AC50 [1] | AC50 [2]
45 | O=C(Nc1ccccc1C(=O)NCC1CCCO1)c1ccco1 (configuration not stated) | 32.6 µM [rising, single point] | 
46 | CC(C)Cc1nc(C(N)=O)c2[nH]c(=O)n(-c3ccc(F)cc3)c2n1 | 16.4 µM [falling, partial curve, poor fit] | 
47 | Nc1ccc2oc(C3CCCCC3)nc2c1 | 1.41 µM [rising, partial curve, poor fit] | 
48 | CCc1cc(-c2onc(C)c2-c2cscn2)c(O)cc1OC | 35.5 µM [falling, single point] | 3.55 µM [falling, single point]
49 | Cc1ccc(-c2csc(NCCn3c(-c4ccncc4)nc4ccccc43)n2)cc1 | 0.447 µM [falling, full curve, poor fit] | 
50 | COc1ccc(/C=C/C(=O)O/N=C(\N)c2cccnc2)cc1OC | 4.47 µM [rising, partial curve, poor fit] | 
51 | Cc1noc(C)c1C(=O)N1CCOCC1 | 29.1 µM [falling, single point] | 
52 | Cc1ccc(CNCC(O)(c2ccccc2)c2ccc(F)cc2)cc1 (configuration not stated) | 7.08 µM [falling, partial curve, poor fit] | 
53 | CCOC(=O)C1CCCN(CC(=O)Nc2c(C(=O)OC)[nH]c3ccccc23)C1 (configuration not stated) | 6.31 µM [falling, single point] | 
54 | O=C(O)c1cccc(Nc2nc(-c3ccc([N+](=O)[O-])cc3)nc3ccccc23)c1 | 0.316 µM [rising, full curve, poor fit] | 
55 | Cc1cc(C(=O)COC(=O)c2ccc(NC(=O)CC#N)cc2)c(C)n1C1CC1 | 23.1 µM [falling, partial curve, poor fit] | 
56 | Cc1cc(SCC(=O)c2cc3ccccc3o2)nc2ccccc12 | 0.891 µM [falling, full curve] | 
57 | CCOC(=O)c1c(C)[nH]c(C)c1C(=O)COC(=O)/C=C/c1ccco1 | 14.6 µM [rising, partial curve, poor fit] | 
58 | CCn1c(COc2c(C)cccc2C)nnc1SCC(=O)N1CCN(c2ccccc2)CC1 | 35.5 µM [falling, single point] | 
59 | N#CC(Nc1ccccc1)c1ccccc1OCc1ccccc1 (configuration not stated) | 0.116 µM [rising, full curve, poor fit] | 
60 | COc1cccc(/C=C/c2ccc3cccc(O)c3n2)c1OC | 15.8 µM [rising, partial curve] | 35.5 µM [falling, single point]
61 | COc1ccc(-c2nn(-c3ccccc3)cc2/C=C2/SC(=S)N(CCCC(=O)O)C2=O)c(C)c1 | 0.562 µM [falling, full curve, poor fit] | 
62 | CCSc1nnc(NC(=O)c2cc(C)on2)s1 | 29.1 µM [falling, single point] | 
63 | CC(C)N(Cc1nc(-c2ccc(Cl)cc2)no1)C(=O)CCCN1C(=O)c2ccccc2C1=O | 35.5 µM [falling, single point] | 
64 | O=C(Nc1cccnc1)Nc1ccccc1Cl | 20.6 µM [falling, partial curve, poor fit] | 

3 compounds already listed, sorted by molecular weight, high to low:
Row | Structure (SMILES) | AC50 [1] | AC50 [2]
58 | CCn1c(COc2c(C)cccc2C)nnc1SCC(=O)N1CCN(c2ccccc2)CC1 | 35.5 µM [falling, single point] | 
49 | Cc1ccc(-c2csc(NCCn3c(-c4ccncc4)nc4ccccc43)n2)cc1 | 0.447 µM [falling, full curve, poor fit] | 
52 | Cc1ccc(CNCC(O)(c2ccccc2)c2ccc(F)cc2)cc1 (configuration not stated) | 7.08 µM [falling, partial curve, poor fit] | 
